Measurements reported in PubChem BioAssay AID1224828 (NIAID, 2016).

Assay: 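Knock-downs that increase or decrease LPS-induced p65 nuclear translocation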 (primary screen)
Cells: mouse RAW264.7 G9 macrophage reporter cells (GFP-p65, Tnf promoter-mCherry)
Reagent: siRNA pool against mouse genes, 100 nM
Duration: 2 days siRNA transfection, then 40 min LPS before fixation
Treatment: LPS (Salmonella minnesota R595) at 10 ng/ml
Measured: 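Imaged p65 nuclear translocation ratio, normalised to the plate median, converted to robust z-scores and averaged across two replicates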
Scale: p65 translocation robust z-score: higher = more nuclear NF-kappaB p65 after LPS than the plate median; nuclear/cytoplasmic p65 ratio: higher = more nuclear NF-kappaB p65
Rule for the call: 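Active if robust z is above 3.3 (negative regulators) or below -1.56, the Tlr4 control median (positive regulators); activity score 50 or more; control wells not called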
Meaning of the calls: active = hit (p65 shift raised or lowered); inactive = no clear change
The whole screen tested about 17,000 reagents; this is a random part of them. In the full data, 762 (4.5%) were called active. 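Active calls include both raised and lowered p65 entry, mostly lowered; wells with fewer than 50 cells lack a z-score.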 Raw values are not corrected between plates. The numbers tell different reagents against one gene apart.

| target | reagent no. | p65 translocation robust z-score | nuclear/cytoplasmic p65 ratio, rep 1 | nuclear/cytoplasmic p65 ratio, rep 2 | low cell count flag | call |
| --- | --- | --- | --- | --- | --- | --- |
| Dnttip1 (GeneID 76233) | 1 | 0.28 | 1.56 | 1.37 | enough cells to score | inactive |
| Nat8f5 (GeneID 69049) | 1 | 0.44 | 1.65 | 1.87 | enough cells to score | inactive |
| Adi1 (GeneID 104923) | 1 | -0.57 | 1.53 | 1.58 | enough cells to score | inactive |
| Tmem45b (GeneID 235135) | 1 | -0.37 | 1.58 | 1.71 | enough cells to score | inactive |
| Slc35a2 (GeneID 22232) | 1 | – | 1.6 | 1.24 | fewer than 50 cells per well; well left out of scoring | inactive |
| Prkcz (GeneID 18762) | 1 | 0.28 | 1.73 | 1.41 | enough cells to score | inactive |
| Akt1s1 (GeneID 67605) | 1 | -2.04 | 1.27 | 1.4 | enough cells to score | active |
| Dppa1 (GeneID 347708) | 1 | – | 1.74 | 1.34 | fewer than 50 cells per well; well left out of scoring | inactive |
| Tmcc1 (GeneID 330401) | 1 | 1.83 | 1.83 | 1.94 | enough cells to score | inactive |
| Or2a57 (GeneID 18346) | 1 | 0.06 | 1.42 | 1.28 | enough cells to score | inactive |
| Atic (GeneID 108147) | 1 | 0.6 | 1.71 | 1.69 | enough cells to score | inactive |
| Tead2 (GeneID 21677) | 1 | – | 1.18 | 1.1 | fewer than 50 cells per well; well left out of scoring | inactive |
| Eef1a2 (GeneID 13628) | 1 | -0.68 | 1.32 | 1.27 | enough cells to score | inactive |
| Kri1 (GeneID 215194) | 1 | 0.83 | 1.79 | 1.88 | enough cells to score | inactive |
| Slc22a6 (GeneID 18399) | 1 | -0.89 | 1.27 | 1.17 | enough cells to score | inactive |
| Eogt (GeneID 101351) | 1 | 0.2 | 1.4 | 1.56 | enough cells to score | inactive |
| Prelid3a (GeneID 225655) | 1 | -2.06 | 1.23 | 1.55 | enough cells to score | active |
| Arhgap27 (GeneID 544817) | 1 | -0.51 | 1.26 | 1.43 | enough cells to score | inactive |
| Arhgap27 (GeneID 544817) | 2 | -2.01 | 1.1 | 1.11 | enough cells to score | active |
| Banp (GeneID 53325) | 1 | -0.72 | 1.51 | 1.5 | enough cells to score | inactive |
| Khdrbs2 (GeneID 170771) | 1 | 0.85 | 1.5 | 1.7 | enough cells to score | inactive |
| Zfp426 (GeneID 235028) | 1 | -0.02 | 1.35 | 1.3 | enough cells to score | inactive |
| Tiprl (GeneID 226591) | 1 | 0.47 | 1.48 | 1.46 | enough cells to score | inactive |
| Acox3 (GeneID 80911) | 1 | -0.28 | 1.58 | 1.62 | enough cells to score | inactive |
| Mtfr2 (GeneID 71804) | 1 | -0.52 | 1.33 | 1.2 | enough cells to score | inactive |
| Slco1a6 (GeneID 28254) | 1 | – | 1.84 | 1.54 | fewer than 50 cells per well; well left out of scoring | inactive |
| 4930544G11Rik (GeneID 67653) | 1 | – | 1.1 | 1.34 | fewer than 50 cells per well; well left out of scoring | inactive |
| Fads1 (GeneID 76267) | 1 | -0.41 | 1.55 | 1.39 | enough cells to score | inactive |
| S100a5 (GeneID 20199) | 1 | -0.14 | 1.56 | 1.44 | enough cells to score | inactive |
| Cts8 (GeneID 56094) | 1 | 0.42 | 1.62 | 1.87 | enough cells to score | inactive |
| Dvl3 (GeneID 13544) | 1 | 2.49 | 1.78 | 1.73 | enough cells to score | inactive |
| Rspo2 (GeneID 239405) | 1 | – | 1.09 | 1.24 | fewer than 50 cells per well; well left out of scoring | inactive |
| Dstyk (GeneID 213452) | 1 | 0.68 | 1.76 | 1.67 | enough cells to score | inactive |
| Taar8a (GeneID 215859) | 1 | -0.37 | 1.46 | 1.52 | enough cells to score | inactive |
| Nudt7 (GeneID 67528) | 1 | -0.85 | 1.59 | 1.4 | enough cells to score | inactive |
| Gfm1 (GeneID 28030) | 1 | -0.91 | 1.4 | 1.39 | enough cells to score | inactive |
| Lrrc59 (GeneID 98238) | 1 | -2.12 | 1.12 | 1.21 | enough cells to score | active |
| Mcpt9 (GeneID 17232) | 1 | -0.89 | 1.57 | 1.42 | enough cells to score | inactive |
| Pira4 (GeneID 18727) | 1 | 1.22 | 1.52 | 1.37 | enough cells to score | inactive |
| Zfp346 (GeneID 26919) | 1 | 0.07 | 1.42 | 1.26 | enough cells to score | inactive |
| Anp32e (GeneID 66471) | 1 | -0.11 | 1.5 | 1.76 | enough cells to score | inactive |
| Arhgap17 (GeneID 70497) | 1 | 1.46 | 1.68 | 1.85 | enough cells to score | inactive |
| Ppip5k2 (GeneID 227399) | 1 | 1.91 | 1.96 | 1.84 | enough cells to score | inactive |
| Mpo (GeneID 17523) | 1 | 0.9 | 1.61 | 1.41 | enough cells to score | inactive |
| Epyc (GeneID 13516) | 1 | 0.31 | 1.51 | 1.39 | enough cells to score | inactive |
| Dnajc24 (GeneID 99349) | 1 | -0.58 | 1.32 | 1.41 | enough cells to score | inactive |
| Nrm (GeneID 106582) | 1 | 0.17 | 1.83 | 1.48 | enough cells to score | inactive |
| Pnoc (GeneID 18155) | 1 | – | 1.57 | 1.16 | fewer than 50 cells per well; well left out of scoring | inactive |
| Idua (GeneID 15932) | 1 | 0.38 | 1.45 | 1.46 | enough cells to score | inactive |
| Polr1has (GeneID 76416) | 1 | 0.3 | 1.42 | 1.46 | enough cells to score | inactive |
| Emc7 (GeneID 73024) | 1 | – | 1.52 | 1.44 | fewer than 50 cells per well; well left out of scoring | inactive |
| Map1b (GeneID 17755) | 1 | -0.31 | 1.28 | 1.41 | enough cells to score | inactive |
| Usf1 (GeneID 22278) | 1 | 0.27 | 1.56 | 1.54 | enough cells to score | inactive |
| Serpini2 (GeneID 67931) | 1 | 0.78 | 1.64 | 1.6 | enough cells to score | inactive |
| Egf (GeneID 13645) | 1 | -0.02 | 1.44 | 1.38 | enough cells to score | inactive |
| Gtpbp4 (GeneID 69237) | 1 | -0.63 | 1.64 | 1.36 | enough cells to score | inactive |
| Gbp3 (GeneID 55932) | 1 | -1.19 | 1.37 | 1.34 | enough cells to score | inactive |
| Tbc1d14 (GeneID 100855) | 1 | -1.5 | 1.41 | 1.27 | enough cells to score | inactive |
| Sirt5 (GeneID 68346) | 1 | 1.27 | 1.57 | 1.4 | enough cells to score | inactive |
| Pygm (GeneID 19309) | 1 | -1.83 | 1.27 | 1.48 | enough cells to score | active |
| Cdh15 (GeneID 12555) | 1 | 1.04 | 1.63 | 1.49 | enough cells to score | inactive |
| E130114P18Rik (GeneID 319865) | 1 | 1.58 | 1.68 | 1.56 | enough cells to score | inactive |
| Gstm3 (GeneID 14864) | 1 | -1.32 | 1.6 | 1.21 | enough cells to score | inactive |
| Casp3 (GeneID 12367) | 1 | 0.05 | 1.65 | 1.6 | enough cells to score | inactive |
| Kbtbd12 (GeneID 74589) | 1 | -0.43 | 1.25 | 1.21 | enough cells to score | inactive |
| Top3b (GeneID 21976) | 1 | -1.23 | 1.43 | 1.27 | enough cells to score | inactive |
| 4933440M02Rik (GeneID 71208) | 1 | – | 1.37 | 1.62 | fewer than 50 cells per well; well left out of scoring | inactive |
| Mansc1 (GeneID 67729) | 1 | – | 1.33 | 1.57 | fewer than 50 cells per well; well left out of scoring | inactive |
| Mpv17l2 (GeneID 234384) | 1 | – | 1.33 | 1.18 | fewer than 50 cells per well; well left out of scoring | inactive |
| Mknk1 (GeneID 17346) | 1 | 0.5 | 1.65 | 1.53 | enough cells to score | inactive |
| Rilpl2 (GeneID 80291) | 1 | 0.22 | 1.55 | 1.74 | enough cells to score | inactive |
| Pcdh9 (GeneID 211712) | 1 | 0.24 | 1.48 | 1.44 | enough cells to score | inactive |
| Rbl1 (GeneID 19650) | 1 | -0.95 | 1.41 | 1.35 | enough cells to score | inactive |
| Pik3ip1 (GeneID 216505) | 1 | -1.06 | 1.35 | – | enough cells to score | inactive |
| Atp7b (GeneID 11979) | 1 | 0.15 | 1.67 | 1.6 | enough cells to score | inactive |
